No constants are given. Whether binding was seen depends on the method and setting. Binding seen in cells or lysates may run through a third protein. Here binding means that the protein was enriched with, or labelled near, the bait; the list need not be complete. For part of these data: No binding means not detected with the bait.
T1: HER2 PRM-containing C-terminal tail bait peptide (residues 1144-1161, wild-type PRM) (human)
T1 sequence (peptide, N-terminal biotin, joined through two polyethylene glycol (PEG) spacers): DVRPQPPSPREGPLPAAR

Chains of the proteins cited; added tags and fusions are not shown.
UniProt Q96N67: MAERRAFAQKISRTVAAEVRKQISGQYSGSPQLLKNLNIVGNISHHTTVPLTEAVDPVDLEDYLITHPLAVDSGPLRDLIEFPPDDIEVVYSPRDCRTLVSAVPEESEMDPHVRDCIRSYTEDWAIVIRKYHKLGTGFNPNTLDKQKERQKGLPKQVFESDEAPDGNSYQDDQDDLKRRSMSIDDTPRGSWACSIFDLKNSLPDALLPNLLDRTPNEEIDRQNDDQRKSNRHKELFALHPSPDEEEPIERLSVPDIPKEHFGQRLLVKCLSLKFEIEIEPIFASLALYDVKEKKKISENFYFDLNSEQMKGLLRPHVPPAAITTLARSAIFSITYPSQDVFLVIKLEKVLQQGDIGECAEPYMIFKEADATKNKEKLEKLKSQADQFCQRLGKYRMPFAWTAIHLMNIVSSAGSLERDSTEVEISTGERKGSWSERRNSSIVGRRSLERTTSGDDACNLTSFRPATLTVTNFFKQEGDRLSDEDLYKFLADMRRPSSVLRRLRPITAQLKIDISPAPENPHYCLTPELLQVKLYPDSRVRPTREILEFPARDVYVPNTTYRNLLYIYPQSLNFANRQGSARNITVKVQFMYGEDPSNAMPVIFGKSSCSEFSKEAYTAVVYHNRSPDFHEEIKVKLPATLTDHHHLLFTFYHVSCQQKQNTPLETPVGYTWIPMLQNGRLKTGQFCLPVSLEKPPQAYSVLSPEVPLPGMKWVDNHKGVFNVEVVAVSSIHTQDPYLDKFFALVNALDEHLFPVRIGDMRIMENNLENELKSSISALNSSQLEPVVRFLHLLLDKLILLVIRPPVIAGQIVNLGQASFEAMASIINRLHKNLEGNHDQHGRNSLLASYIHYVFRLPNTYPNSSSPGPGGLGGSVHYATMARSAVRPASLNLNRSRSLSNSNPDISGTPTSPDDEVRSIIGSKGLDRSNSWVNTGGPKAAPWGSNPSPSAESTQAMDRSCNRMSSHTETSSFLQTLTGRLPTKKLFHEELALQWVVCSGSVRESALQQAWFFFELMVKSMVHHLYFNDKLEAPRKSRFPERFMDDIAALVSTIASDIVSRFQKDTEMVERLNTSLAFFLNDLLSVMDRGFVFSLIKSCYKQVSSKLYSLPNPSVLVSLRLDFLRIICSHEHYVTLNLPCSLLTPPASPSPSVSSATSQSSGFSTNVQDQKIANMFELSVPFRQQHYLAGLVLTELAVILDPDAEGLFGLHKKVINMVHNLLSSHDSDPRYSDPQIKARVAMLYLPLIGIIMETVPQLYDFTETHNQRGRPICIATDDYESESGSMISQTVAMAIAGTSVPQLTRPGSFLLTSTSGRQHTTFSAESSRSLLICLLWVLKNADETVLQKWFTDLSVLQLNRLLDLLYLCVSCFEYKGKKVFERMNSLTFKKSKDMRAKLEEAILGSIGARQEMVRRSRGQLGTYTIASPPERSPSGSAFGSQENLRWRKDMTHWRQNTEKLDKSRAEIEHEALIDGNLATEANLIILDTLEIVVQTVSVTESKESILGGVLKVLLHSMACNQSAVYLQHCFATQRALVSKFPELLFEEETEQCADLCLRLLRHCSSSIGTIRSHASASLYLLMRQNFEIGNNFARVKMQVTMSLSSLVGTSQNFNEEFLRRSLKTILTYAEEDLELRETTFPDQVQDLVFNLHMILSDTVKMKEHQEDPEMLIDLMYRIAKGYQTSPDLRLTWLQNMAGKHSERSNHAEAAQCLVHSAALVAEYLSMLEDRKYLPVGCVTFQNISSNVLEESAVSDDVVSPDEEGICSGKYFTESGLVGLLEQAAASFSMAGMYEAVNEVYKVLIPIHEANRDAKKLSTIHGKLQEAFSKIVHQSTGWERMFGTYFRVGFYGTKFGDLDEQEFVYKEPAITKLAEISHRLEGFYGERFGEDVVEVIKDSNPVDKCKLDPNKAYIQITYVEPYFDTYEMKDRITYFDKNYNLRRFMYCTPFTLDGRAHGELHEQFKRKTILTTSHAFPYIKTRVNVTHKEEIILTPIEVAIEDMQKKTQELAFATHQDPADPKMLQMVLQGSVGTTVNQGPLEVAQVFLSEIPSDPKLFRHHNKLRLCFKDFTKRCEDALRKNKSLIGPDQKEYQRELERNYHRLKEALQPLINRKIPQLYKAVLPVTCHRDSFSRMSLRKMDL
UniProt P07947: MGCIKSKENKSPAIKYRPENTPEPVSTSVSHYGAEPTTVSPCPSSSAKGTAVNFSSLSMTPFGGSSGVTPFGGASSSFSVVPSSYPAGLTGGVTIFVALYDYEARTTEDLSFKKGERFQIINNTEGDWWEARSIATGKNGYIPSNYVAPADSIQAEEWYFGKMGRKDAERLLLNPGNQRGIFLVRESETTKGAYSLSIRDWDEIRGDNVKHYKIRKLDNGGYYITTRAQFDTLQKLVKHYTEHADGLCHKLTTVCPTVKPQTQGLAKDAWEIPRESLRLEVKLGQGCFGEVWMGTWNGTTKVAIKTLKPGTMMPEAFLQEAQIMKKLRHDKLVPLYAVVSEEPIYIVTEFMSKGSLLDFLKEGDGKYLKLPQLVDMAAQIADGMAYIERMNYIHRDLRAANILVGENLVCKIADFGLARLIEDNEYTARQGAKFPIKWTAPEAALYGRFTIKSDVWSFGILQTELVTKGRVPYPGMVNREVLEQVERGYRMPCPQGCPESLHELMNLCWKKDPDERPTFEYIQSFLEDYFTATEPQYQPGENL
UniProt Q9UH65: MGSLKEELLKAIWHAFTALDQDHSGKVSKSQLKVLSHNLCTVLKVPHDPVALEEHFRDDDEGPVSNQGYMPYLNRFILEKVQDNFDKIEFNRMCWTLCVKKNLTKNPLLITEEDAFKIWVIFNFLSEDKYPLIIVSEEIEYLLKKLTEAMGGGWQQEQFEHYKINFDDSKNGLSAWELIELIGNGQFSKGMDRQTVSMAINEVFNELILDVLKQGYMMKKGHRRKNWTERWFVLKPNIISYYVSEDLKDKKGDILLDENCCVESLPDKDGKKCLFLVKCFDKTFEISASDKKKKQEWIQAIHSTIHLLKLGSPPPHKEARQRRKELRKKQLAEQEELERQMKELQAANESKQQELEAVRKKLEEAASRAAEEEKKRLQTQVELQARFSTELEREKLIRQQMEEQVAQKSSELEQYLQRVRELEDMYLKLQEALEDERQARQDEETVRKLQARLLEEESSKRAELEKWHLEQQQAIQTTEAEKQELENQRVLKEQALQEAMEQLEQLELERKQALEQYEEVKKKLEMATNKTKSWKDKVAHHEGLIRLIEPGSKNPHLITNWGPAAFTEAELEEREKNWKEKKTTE
UniProt P62993: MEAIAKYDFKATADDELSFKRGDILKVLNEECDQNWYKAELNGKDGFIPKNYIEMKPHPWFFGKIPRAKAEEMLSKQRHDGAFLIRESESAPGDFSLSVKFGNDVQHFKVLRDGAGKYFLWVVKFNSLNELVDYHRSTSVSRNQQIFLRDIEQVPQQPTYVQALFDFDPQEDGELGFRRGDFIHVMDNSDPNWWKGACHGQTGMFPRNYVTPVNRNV

T2: FGFR2 PRM-containing C-terminal tail bait peptide (residues 806-821, wild-type PRM) (human)
T2 sequence (peptide, N-terminal biotin, joined through two polyethylene glycol (PEG) spacers): EPSLPQFPHINGSVKT

T3: EGFR PRM-containing C-terminal tail bait peptide (residues 1105-1124, wild-type PRM) (human)
T3 sequence (peptide, N-terminal biotin, joined through two polyethylene glycol (PEG) spacers): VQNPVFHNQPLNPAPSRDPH


Tests used:
Assay in all cases: affinity purification with mass spectrometry; biotinylated bait peptide (50 μg) on streptavidin agarose beads; 1 mg pre-cleared lysate of H520, OE19, SKBR3, U251 or HEK293T (stably FGFR2) cells in RIPA buffer, overnight at 4 °C; LC-MS; scored against scrambled control peptides (proline to leucine) with SAINTexpress and Perseus; only the target purified
[1] = molecular target: T1, HER2 PRM-containing C-terminal tail bait peptide (residues 1144-1161, wild-type PRM) (human)
[2] = molecular target: T2, FGFR2 PRM-containing C-terminal tail bait peptide (residues 806-821, wild-type PRM) (human)
[3] = molecular target: T3, EGFR PRM-containing C-terminal tail bait peptide (residues 1105-1124, wild-type PRM) (human)

Row | Molecule | binding [1] | binding [2] | binding [3]
1 | Dedicator of cytokinesis protein 7 (from UniProt Q96N67 1-2140) | binds | no binding | no binding
2 | Src family tyrosine kinase YES (from UniProt P07947 1-543) | – | – | binds
3 | switch associated protein 70 (from UniProt Q9UH65 1-585) | – | – | binds
4 | phospholipase Cγ1 (protein, UniProt P19174 1-1290) MAGAASPCANGCGPGAPSDAEVLHLCRSLEVGTVMTLFYSKKSQRPERKTFQVKLETRQITWSRGADKIEGAIDIREIKEIRPGKTSRDFDRYQEDPAFRPDQSHCFVILYGMEFRLKTLSLQATSEDEVNMWIKGLTWLMEDTLQAPTPLQIERWLRKQFYSVDRNREDRISAKDLKNMLSQVNYRVPNMRFLRERLTDLEQRSGDITYGQFAQLYRSLMYSAQKTMDLPFLEASTLRAGERPELCRVSLPEFQQFLLDYQGELWAVDRLQVQEFMLSFLRDPLREIEEPYFFLDEFVTFLFSKENSVWNSQLDAVCPDTMNNPLSHYWISSSHNTYLTGDQFSSESSLEAYARCLRMGCRCIELDCWDGPDGMPVIYHGHTLTTKIKFSDVLHTIKEHAFVASEYPVILSIEDHCSIAQQRNMAQYFKKVLGDTLLTKPVEISADGLPSPNQLKRKILIKHKKLAEGSAYEEVPTSMMYSENDISNSIKNGILYLEDPVNHEWYPHYFVLTSSKIYYSEETSSDQGNEDEEEPKEVSSSTELHSNEKWFHGKLGAGRDGRHIAERLLTEYCIETGAPDGSFLVRESETFVGDYTLSFWRNGKVQHCRIHSRQDAGTPKFFLTDNLVFDSLYDLITHYQQVPLRCNEFEMRLSEPVPQTNAHESKEWYHASLTRAQAEHMLMRVPRDGAFLVRKRNEPNSYAISFRAEGKIKHCRVQQEGQTVMLGNSEFDSLVDLISYYEKHPLYRKMKLRYPINEEALEKIGTAEPDYGALYEGRNPGFYVEANPMPTFKCAVKALFDYKAQREDELTFIKSAIIQNVEKQEGGWWRGDYGGKKQLWFPSNYVEEMVNPVALEPEREHLDENSPLGDLLRGVLDVPACQIAIRPEGKNNRLFVFSISMASVAHWSLDVAADSQEELQDWVKKIREVAQTADARLTEGKIMERRKKIALELSELVVYCRPVPFDEEKIGTERACYRDMSSFPETKAEKYVNKAKGKKFLQYNRLQLSRIYPKGQRLDSSNYDPLPMWICGSQLVALNFQTPDKPMQMNQALFMTGRHCGYVLQPSTMRDEAFDPFDKSSLRGLEPCAISIEVLGARHLPKNGRGIVCPFVEIEVAGAEYDSTKQKTEFVVDNGLNPVWPAKPFHFQISNPEFAFLRFVVYEEDMFSDQNFLAQATFPVKGLKTGYRAVPLKNNYSEDLELASLLIKIDIFPAKENGDLSPFSGTSLRERGSDASGQLFHGRAREGSFESRYQQPFEDFRISQEHLADHFDSRERRAPRRTRVNGDNRL | – | no binding | –

The next lines start with the values.

Row | binding [1] | binding [2] | binding [3] | Molecule
5 | – | binds | binds | Spectrin alpha chain, non-erythrocytic 1 (from UniProt Q13813 1-2472)
6 | – | no binding | – | growth factor receptor bound protein 2 (from UniProt P62993 1-217)
7 | binds | no binding | no binding | Treacle protein (protein, UniProt Q13428 1-1488) MAEARKRRELLPLIYHHLLRAGYVRAAREVKEQSGQKCFLAQPVTLLDIYTHWQQTSELGRKRKAEEDAALQAKKTRVSDPISTSESSEEEEEAEAETAKATPRLASTNSSVLGADLPSSMKEKAKAETEKAGKTGNSMPHPATGKTVANLLSGKSPRKSAEPSANTTLVSETEEEGSVPAFGAAAKPGMVSAGQADSSSEDTSSSSDETDVEGKPSVKPAQVKASSVSTKESPARKAAPAPGKVGDVTPQVKGGALPPAKRAKKPEEESESSEEGSESEEEAPAGTRSQVKASEKILQVRAASAPAKGTPGKGATPAPPGKAGAVASQTKAGKPEEDSESSSEESSDSEEETPAAKALLQAKASGKTSQVGAASAPAKESPRKGAAPAPPGKTGPAVAKAQAGKREEDSQSSSEESDSEEEAPAQAKPSGKAPQVRAASAPAKESPRKGAAPAPPRKTGPAAAQVQVGKQEEDSRSSSEESDSDREALAAMNAAQVKPLGKSPQVKPASTMGMGPLGKGAGPVPPGKVGPATPSAQVGKWEEDSESSSEESSDSSDGEVPTAVAPAQEKSLGNILQAKPTSSPAKGPPQKAGPVAVQVKAEKPMDNSESSEESSDSADSEEAPAAMTAAQAKPALKIPQTKACPKKTNTTASAKVAPVRVGTQAPRKAGTATSPAGSSPAVAGGTQRPAEDSSSSEESDSEEEKTGLAVTVGQAKSVGKGLQVKAASVPVKGSLGQGTAPVLPGKTGPTVTQVKAEKQEDSESSEEESDSEEAAASPAQVKTSVKKTQAKANPAAARAPSAKGTISAPGKVVTAAAQAKQRSPSKVKPPVRNPQNSTVLARGPASVPSVGKAVATAAQAQTGPEEDSGSSEEESDSEEEAETLAQVKPSGKTHQIRAALAPAKESPRKGAAPTPPGKTGPSAAQAGKQDDSGSSSEESDSDGEAPAAVTSAQVIKPPLIFVDPNRSPAGPAATPAQAQAASTPRKARASESTARSSSSESEDEDVIPATQCLTPGIRTNVVTMPTAHPRIAPKASMAGASSSKESSRISDGKKQEGPATQVSKKNPASLPLTQAALKVLAQKASEAQPPVARTQPSSGVDSAVGTLPATSPQSTSVQAKGTNKLRKPKLPEVQQATKAPESSDDSEDSSDSSSGSEEDGEGPQGAKSAHTLGPTPSRTETLVEETAAESSEDDVVAPSQSLLSGYMTPGLTPANSQASKATPKLDSSPSVSSTLAAKDDPDGKQEAKPQQAAGMLSPKTGGKEAASGTTPQKSRKPKKGAGNPQASTLALQSNITQCLLGQPWPLNEAQVQASVVKVLTELLEQERKKVVDTTKESSRKGWESRKRKLSGDQPAARTPRSKKKKKLGAGEGGEASVSPEKTSTTSKGKAKRDKASGDVKEKKGKGSLGSQGAKDEPEEELQKGMGTVEGGDQSNPKSKKEKKKSDKRKKDKEKKEKKKKAKKASTKDSESPSQKKKKKKKKTAEQTV

From paper PMC11334840
